Values of other authors as cited in patent US5756145A, “Durable, Resilient and effective antimicrobial coating for medical devices and method of coating therefor” (priority 1995, dated 1998).

Tested on: bacterial and fungal organisms
Conditions: general statement; cited from earlier work

CCCCCCCCCCCCCCCC[n+]1ccccc1 [Cetylpyridinium Chloride, 1-Hexadecylpridinium chloride]
spectrum of antimicrobial activity: activity against gram-positive bacteria and Candida
